Data as given in PubChem BioAssay AID686937 (Drosophila RNAi Screening Center, 2013).

- Purpose: 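Genes in the fly needed for secretion of protein constitutively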 (primary screen)
- Cells: Drosophila S2 cells expressing secreted horseradish peroxidase
- Knock-down reagent: long dsRNA against Drosophila genes
- Duration: about 5.5 days (5 days dsRNA, then 12 h reporter induction)
- Challenge: reporter expression induced after 5 days of dsRNA, read 12 h later; inducer not stated
- Detection: 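After 5 days of dsRNA and 12 h of reporter induction, medium peroxidase read by chemiluminescence and scored as per-plate z-score; higher values mean more reporter released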
- Reading the numbers: z-score: higher = more reporter secreted into medium
In all, the deposit lists about 23,000 reagents; below is an unselected part of those with a known target gene and a result. 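Reduced-secretion tags in replicate 1 do not always agree with the z-scores; no criterion for assigning the tags was given.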 The numbers tell different reagents against one gene apart. A plus sign joins genes that one reagent is predicted to hit. Not all columns of the deposit are shown. Not given: the amount of reagent.

predicted target | reagent no. | z-score, replicate 1 | z-score, replicate 2 | z-score, replicate 3 | z-score, replicate 4
Rab18 (GeneID 44360) | 1 | 0.38 | 0.28 | – | –
ENGase (GeneID 32726) | 1 | -1.63 | -0.01 | – | –
ENGase (GeneID 32726) | 2 | 0.12 | 0.53 | – | –
CG10307 (GeneID 37477) | 1 | 0.25 | 0.45 | – | –
Yp1 (GeneID 31939) | 1 | 0.27 | 0.44 | – | –
Ir52d (GeneID 36716) | 1 | 0.15 | 0.11 | – | –
EDTP (GeneID 36959) | 1 | 0.32 | 0.2 | – | –
Cpr57A + Obp57d | 1 | 0.16 | 0.04 | – | –
Cpr57A + Obp57d | 2 | -1.05 | -0.41 | – | –
Gr39b (GeneID 117347) | 1 | 0.43 | 0.29 | -0.04 | -0.71
CG5882 (GeneID 43269) | 1 | -0.2 | -0.11 | – | –
CG6340 (GeneID 32482) | 1 | 0.13 | 0.77 | 0.77 | 0.26
Ada3 (GeneID 32787) | 1 | 0.09 | -0.24 | – | –
Ada3 (GeneID 32787) | 2 | -0.03 | 0.23 | – | –
CG11964 (GeneID 41068) | 1 | 0.16 | 0.3 | – | –
CG32815 (GeneID 318224) | 1 | 0.37 | 0.34 | – | –
CG32815 (GeneID 318224) | 2 | -0.13 | 0.24 | – | –
Proc-R (GeneID 31408) | 1 | 0.29 | 0.23 | – | –
CG1571 (GeneID 31725) | 1 | 0.58 | -0.04 | – | –
CG12911 (GeneID 36081) | 1 | 0.25 | 0.04 | – | –
dachs (GeneID 34179) | 1 | 0.63 | 0.58 | 0.33 | -0.03
dachs (GeneID 34179) | 2 | 0.33 | 0.36 | – | –
dachs (GeneID 34179) | 3 | 0.37 | 0.3 | – | –
GramD1B (GeneID 33552) | 1 | -0.15 | -0.15 | – | –
GramD1B (GeneID 33552) | 2 | 0.7 | 0.65 | – | –
CG34429 (GeneID 5740606) | 1 | 0.26 | 0.33 | – | –
CG42366 (GeneID 34319) | 1 | 0.76 | 0.51 | – | –
Vsx1 (GeneID 31470) | 1 | 0.4 | 0.43 | 0.54 | 0.32
Vsx1 (GeneID 31470) | 2 | -2.88 | -1.45 | – | –
CG15211 (GeneID 32006) | 1 | 0.19 | 0.39 | – | –
CG3216 (GeneID 37376) | 1 | 0.39 | 0.34 | – | –
CG9119 (GeneID 38124) | 1 | -4.92 | -4.91 | – | –
CG16812 (GeneID 34722) | 1 | 0.7 | 0.38 | – | –
CG10993 (GeneID 32344) | 1 | 0.42 | 0.48 | – | –
CG3558 (GeneID 48421) | 1 | 0.31 | 0.39 | – | –
sfl (GeneID 38736) | 1 | 0.65 | 0.45 | – | –
sfl (GeneID 38736) | 2 | 0.16 | 0.15 | – | –
Nedd8 (GeneID 35151) | 1 | -0.67 | -1.1 | – | –
CG14190 (GeneID 32891) | 1 | 0.66 | 0.44 | – | –
nAChRalpha2 (GeneID 42919) | 1 | 0.21 | 0.29 | – | –
Ts (GeneID 33499) | 1 | 0.3 | 0.37 | – | –
Ts (GeneID 33499) | 2 | 0.15 | -0.19 | – | –
Rpp14b (GeneID 43578) | 1 | -0.14 | -0.29 | – | –
CG9752 (GeneID 37431) | 1 | -0.03 | -0.2 | – | –
CG7530 (GeneID 41784) | 1 | 0.37 | 0.47 | -0.37 | -0.29
CG5267 (GeneID 36875) | 1 | 0.25 | 0.47 | – | –
CG1648 (GeneID 36009) | 1 | -0.15 | 0.54 | 0.45 | 0.15
CG34330 (GeneID 2768869) | 1 | 0.49 | 0.47 | – | –
elg1 (GeneID 39770) | 1 | 0.36 | 0.5 | – | –
CG7806 (GeneID 34140) | 1 | -0.06 | 0.01 | – | –
CG34214 (GeneID 5740774) | 1 | 0.19 | 0.09 | – | –

Quoted from above, 7 entries:
predicted target | reagent no. | z-score, replicate 1 | z-score, replicate 2 | z-score, replicate 3 | z-score, replicate 4
Ada3 (GeneID 32787) | 1 | 0.09 | -0.24 | – | –
Ada3 (GeneID 32787) | 2 | -0.03 | 0.23 | – | –
CG11964 (GeneID 41068) | 1 | 0.16 | 0.3 | – | –
CG32815 (GeneID 318224) | 1 | 0.37 | 0.34 | – | –
CG32815 (GeneID 318224) | 2 | -0.13 | 0.24 | – | –
Proc-R (GeneID 31408) | 1 | 0.29 | 0.23 | – | –
CG1571 (GeneID 31725) | 1 | 0.58 | -0.04 | – | –

The results go on.
predicted target | reagent no. | z-score, replicate 1 | z-score, replicate 2 | z-score, replicate 3 | z-score, replicate 4
Snoo (GeneID 5740414) | 1 | 0.7 | 0.12 | – | –
Snoo (GeneID 5740414) | 2 | 0.26 | 0.36 | – | –
Snoo (GeneID 5740414) | 3 | 0.45 | 0.33 | – | –
achi (GeneID 36373) | 1 | 0.41 | 0.27 | – | –
zf30C (GeneID 34292) | 1 | 0.1 | 0.37 | – | –
CG32204 (GeneID 317913) | 1 | -2.51 | -0.31 | – | –
nmd (GeneID 44021) | 1 | 0.34 | 0.13 | – | –
CG15239 (GeneID 31343) | 1 | 0.34 | -0.15 | – | –
Vps20 (GeneID 37581) | 1 | 0.11 | 0.01 | – | –
CG9813 (GeneID 41644) | 1 | 0.21 | 0.29 | – | –
vig (GeneID 34885) | 1 | 0.5 | 0.75 | 0.33 | 0.23
vig (GeneID 34885) | 2 | 0.48 | 0.38 | – | –
vig (GeneID 34885) | 3 | 0.06 | -0.2 | – | –
Syt4 (GeneID 40876) | 1 | 0.2 | 0.5 | – | –
CG34417 (GeneID 31591) | 1 | -0.18 | 0.26 | – | –
CG34417 (GeneID 31591) | 2 | 0.27 | 0.53 | – | –
CG34417 (GeneID 31591) | 3 | 0.31 | 0.29 | – | –
CG33462 (GeneID 2768841) | 1 | -0.38 | -0.58 | – | –
CG3061 (GeneID 41707) | 1 | 0.27 | 0.54 | – | –
lola (GeneID 44548) | 1 | -3.72 | -1.82 | – | –
lola (GeneID 44548) | 2 | 0.65 | 0.58 | – | –
lola (GeneID 44548) | 3 | -0.01 | 0.07 | – | –
lola (GeneID 44548) | 4 | -1.62 | -1.18 | – | –
lola (GeneID 44548) | 5 | 0.73 | 0.52 | – | –
lola (GeneID 44548) | 6 | 0.07 | 0.08 | – | –
lola (GeneID 44548) | 7 | 0.1 | 0.07 | – | –
lola (GeneID 44548) | 8 | 0.6 | 0.46 | – | –
lola (GeneID 44548) | 9 | -8.62 | 0.46 | – | –
lola (GeneID 44548) | 10 | -0.81 | 0.03 | – | –
lola (GeneID 44548) | 11 | 0.43 | 0.44 | – | –
lola (GeneID 44548) | 12 | 0.4 | 0.36 | – | –
